Results of single-concentration screens

Data taken from ChEMBL document CHEMBL3988442, “University of Dundee, Small-Polar-MMV Screening Library” (2021).

Results are given as percent effect. The controls that fix the scale are not given in the record; negative values are as filed. The compounds are a random part of those screened. Two or more numbers in one place are separate tests of the same structure; such repeats can differ widely.

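Phenotypic screen: M. tuberculosis growth, glucose 7H9 medium, 3 days; the read-out is not stated. Compounds at 50 µM. Higher reads as more growth inhibition (inferred: compounds with an IC50 in retests scored well above the rest). Size under these conditions: about 69,000 compounds, about 760 of them at 50% or above in at least one test.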

Compound	percent effect
COCCC(=O)N1CCN(CCN(C)C)c2ncccc2C1	-22.58%
COc1ccc(NC(=O)c2nc3ccccc3n(C)c2=O)c(OC)c1	11.24%
Cc1nn(C)c(C)c1C1CCCN1CC(=O)NCc1ccco1 (stereo not shown)	-6.387%
N#Cc1ccc(OCCn2cccn2)cc1	-6.084%
O=C(Nc1ccc(N2CCCC2)nc1)N1CCc2sccc2C1	-60.47%
O=C(c1ccn(-c2ccc(F)cc2)n1)N(CCO)Cc1cccnc1	-44.98%
O=C(O)c1ccccc1CN1CCC(c2ccnc3ccnn23)CC1	2.237%
Cc1cc(=O)n2nc(Oc3cccc(C(N)=O)c3)sc2n1	17.49%
CC(=O)c1cnc(NCCN2CCCC(c3ccccc3)C2)nc1C (stereo not shown)	-18.15%
[H][C@@]12CCCCCN(C)[C@@]1([H])[C@H](c1ccccc1)CN2C(=O)c1ccccn1	-9.516%
CC(C)c1csc(C2CCCN(C(=O)c3ccc(=O)n(C)n3)C2)n1 (stereo not shown)	-18.87%
O=C(O)C(F)(F)F.[H][C@@]12CN(C(=O)C3CC=CC3)C[C@]1([H])C(=O)N(Cc1ccncc1)C2	2.64%
Cn1nc(C(=O)N2CCSCC2)cc1NC(=O)c1ccco1	12.25%
COc1cccc(CCCN2CCC(N(C)S(C)(=O)=O)CC2)c1	-3.236%
[H][C@]12CCN(S(=O)(=O)c3ccc(C)cc3)[C@@]1([H])[C@@H](NC(=O)c1[nH]ncc1Br)C2	-2.401%
Cc1cc(CN2CCC(C(=O)O)(n3ccc(-c4ccco4)n3)CC2)on1	21.74%
CCOc1ccc(NC(=O)c2oc(CC)cc2C)cc1CO	29.48%
O=C(NCc1nncn1C1CCCCC1)C1CNCCO1 (stereo not shown)	-28.36%
Cc1ncc(C(=O)N2CCCC(n3cccn3)C2)s1 (stereo not shown)	-15.11%
Cc1cc(N2CCC(O)(CN(C)C(=O)CCN)CC2)c2cnccc2n1	-16.94%
Cc1cnn(CC2CCCN2Cc2cc(=O)n3cccc(C)c3n2)c1 (stereo not shown)	23.46%
[H][C@@]12CCN(Cc3cccnc3)C(=O)[C@@]1([H])CN(Cc1ccoc1)C2	14.45%
Cl.N#Cc1cccnc1OC1CCNCC1	-30.55%
O=C(c1ccccc1)N1CCC2(CC1)CC(Oc1ccccc1)CO2 (stereo not shown)	17.12% & 9.799%
O=C(O)C(F)(F)F.[H][C@@]12COC[C@H](C(=O)N3CCCO3)[C@]1([H])CN(C1CCCC1)C2	-27.52% & 0.5776%
Cc1cc(CN(C)CC2(O)CCCN(CCC3CCCCC3)C2=O)no1 (stereo not shown)	-15.26%
CCn1cnnc1C1CCN(C(=O)c2cc3c(s2)CCC3)CC1	8.596%
O=C(Cc1cccc(O)c1)NCCCNC(=O)c1cccc(F)c1	0.08027%
CN(CC(=O)Nc1nc2c(s1)CCC2)C(=O)c1cccs1	15.88%
CC(C)c1nc(/C=C/c2ccc(O)c(Cl)c2)ncc1C(=O)O	-9.596%
CN(C)C(=O)c1cc(-c2cnc(N)nc2)nc2cc(F)ccc12	-16.36%
CCn1ncc(-c2cc(C(F)(F)F)nc(N3CCC(N)CC3)n2)c1C	47.95% & 43.22%
CCn1ncc2c(C(F)F)cc(-c3ccn(C)n3)nc21	7.198%
COc1ccc(C(C)Nc2nc3c(C)nn(C)c3c(=O)n2C)cc1 (stereo not shown)	-13.58%
Cc1cccc(CNC(=O)c2cccnc2N)c1	-21.01%
CCC1CN(Cc2ccccc2)CCN1Cc1nnc(C2CCC2)o1 (stereo not shown)	16.33% & -0.1908%
CC(O)C1CCN(c2cc(Cl)ccc2C#N)CC1 (stereo not shown)	4.009% & 20.64%
O=C(O)C(F)(F)F.[H][C@@]12C[C@@H](c3nc(C)no3)O[C@]1([H])CN(Cc1cc(C)on1)C2	3.902%
O=C(Cc1ccccn1)N1CCCC(c2nccn2CC2CCC2)C1 (stereo not shown)	-15.11%
O=C(O)C(F)(F)F.[H][C@@]12CCN(c3cccnc3)C[C@]1([H])CN(C(=O)c1ccsc1)C2	-18.18%
CCOCc1nc(-c2ccc(F)cc2Cl)n(C)n1	4.757% & 10.46%
CCN1CCOC(CNCc2ccc(OC)c(F)c2)C1 (stereo not shown)	0.3108% & -15.91%
CNC(=O)c1cnc(/C=C/c2cc(OC)c(O)c(OC)c2)s1	-48.42% & -18.02%
O=C(O)C(F)(F)F.[H][C@]12CC[C@@]3(N=C(C)N(CC4CC4)C3=O)[C@@]1([H])CN(Cc1ccccc1)C2	-5.712%
CCN(CC)C(=O)CSc1nc2nc(C)ccc2o1	-4.062%
O=C(O)C(F)(F)F.O=C(O)C(F)(F)F.[H][C@@]12OCCN(CC3CC3)[C@@]1([H])CC[C@H]2OCCCn1cccn1	26.6%
CCC[C@@H]1CN(Cc2ccc(C(F)(F)F)nc2)C[C@H]1NS(C)(=O)=O	-2.823% & -0.887%
COCCN(C)C[C@@H]1CN(C(=O)c2ccc(O)c(Cl)c2)C[C@@H]1CO	-3.336%
Cc1nc(CN2CCCN(CC(=O)Nc3ccncc3)CC2)no1	9.001%
CC(C)N(C)C(=O)C1CSCN1S(=O)(=O)c1cc(Cl)ccc1Cl (stereo not shown)	-49.78%
O=C(O)C(F)(F)F.[H][C@]12CCN(c3ncccn3)[C@@]1([H])CC[C@@H](COCc1csc(C)n1)O2	-1.212%
CCc1c(C)nn(CC(=O)NC(C)c2n[nH]c(C)n2)c1C (stereo not shown)	-1.729% & -19.9%
O=C(O)C(F)(F)F.[H][C@@]12COC[C@]1(COCc1csc(C)n1)CN(Cc1cc(C)on1)C2	-43.07%
CCC[C@@H]1CN(C(=O)c2cnc3ccccc3c2)C[C@H]1NS(C)(=O)=O	-6.006% & -8.713%
O=S1(=O)CCCN(Cc2ccccc2OCC(F)(F)F)CC1	-14.87%
CN1CCC2(Cc3ccccc3CN(C(=O)CCN)C2)C1 (stereo not shown)	-17.63%
CN1CCC(N2CCC(C(=O)N(C)C)CC2)CC1.O=C(O)C(F)(F)F.O=C(O)C(F)(F)F	-25.23%
Cc1nnc(CNCC2(O)CCCN(Cc3ccc(F)c(F)c3)C2=O)[nH]1 (stereo not shown)	2.818%
CCOc1ccc(Cl)cc1CCNC(=O)Cn1ccccc1=O	-11.31%
Cc1cc(CS(=O)(=O)NCC2CCCCC2)on1	9.558%
Cc1ccc(C(=O)N(CCC#N)Cc2ccccn2)cc1C	-18.44%
CCn1nc2c(cc1=O)CN(CC(=O)N(C)c1nccs1)CC2	-11.01% & -3.188%
Cc1cc(N2CCC(NC(=O)CCC3CCCO3)CC2)nc(C)n1 (stereo not shown)	1.391%
CS(=O)(=O)N1CCCC12CCCN(C(=O)c1ccnnc1)C2 (stereo not shown)	4.022% & 12.52%
CC(C)S(=O)(=O)N1CCC(c2cc3n(n2)[C@@H](C(F)(F)F)C[C@@H](C)N3)CC1	8.7%
Cc1ccccc1C1(C(=O)N2CCOC(C)C2)CCOCC1 (stereo not shown)	-3.754%
O=C(NCCC(=O)N1CCCC1)C(OC1CCCC1)c1ccccc1 (stereo not shown)	-36.73%
Cn1cc(CN2CCc3onc(COCC4CC4)c3C2)cn1	1.263%
OC(CNCCn1cccn1)COc1ccc2ccccc2c1 (stereo not shown)	7.637%
O=C(NCCc1nnc2n1CCC2)NCC1(c2ccccc2)CC1	27.7%
N#CC1(NC(=O)c2nccc3ccccc23)CCSCC1	15.21% & 1.429%
CCc1n[nH]c(C2CN(Cc3csc(C4CCCC4)n3)CCO2)n1 (stereo not shown)	-25.4%
Cc1cc(N2CCCC(O)(CN(C)C(=O)CCN)C2)c2cnccc2n1 (stereo not shown)	-54.82%
CCN(CC)S(=O)(=O)NCC(O)c1c(Cl)cccc1Cl (stereo not shown)	5.933% & 5.818%

Some entries from above, unchanged:

Cc1cnn(CC2CCCN2Cc2cc(=O)n3cccc(C)c3n2)c1 (stereo not shown) gave 23.46%.
Cc1nnc(CNCC2(O)CCCN(Cc3ccc(F)c(F)c3)C2=O)[nH]1 (stereo not shown) gave 2.818%.
Cc1cc(=O)n2nc(Oc3cccc(C(N)=O)c3)sc2n1 gave 17.49%.
Cc1nc(CN2CCCN(CC(=O)Nc3ccncc3)CC2)no1 gave 9.001%.
CC(O)C1CCN(c2cc(Cl)ccc2C#N)CC1 (stereo not shown) gave 4.009% & 20.64%.
COc1cccc(CCCN2CCC(N(C)S(C)(=O)=O)CC2)c1 gave -3.236%.